# According to patent publication US7700584B2 (Hangzhou Minsheng Pharmaceuticals Co., Ltd., priority 2004, dated 2010):
# Where a name gives a salt, the structure may show the parent alone. Some of these results come from one statement about several compounds together.
# Test system: mouse grafted uterine cervix cancer U14
# Assay: Activity against mouse grafted uterine cervix cancer U14
# Assay type: in vivo, Kunming mice
# Description: The experiments were performed according to “Guideline for New Drugs (Western medicines) in Pre-clinical Stages” issued by Bureau of Drug Policy & Administration of the People's Republic of China, and the relevant methods in “Methodology of Pharmaceutical Experiments”, Xu Shuyun et al. ed. 120 male Kunming mice weighting […] were allowed to grow 3 days. No abnormality was observed. The mice were routinely inoculated in oxter with mouse sarcoma S-180, and weighted 4 hrs. after inoculation. The mice were randomly divided into 12 groups, 10 mice/group. Group 1 was given 0.3 ml of physiological saline as negative control; Group 2 was given 5-FU as positive control, 0.6 mg/mouse; Group 3 was given hydroxycamptothecine as positive control, 0.02 mg/mouse. Groups 4, 5 and 6 were injected with 10% Compound 6, 0.4 ml/mouse, 0.2 ml/mouse, and 0.1 ml/mouse, respectively. Groups 7, 8 and 9 were injected with 10% Compound 8, 0.4 ml/mouse, 0.2 ml/mouse, and 0.1 ml/mouse, respectively. Groups 10, 11, and 12 were injected with 10% Compound 20, 0.4 ml/mouse, 0.2 ml/mouse, and 0.1 ml/mouse, respectively. The tested compounds were administered on the next day after inoculation, once a day on alternate days, 6 doses totally administered. On the next day after the end dose, the mice were weighed and sacrificed. After the tumor was excised, body weight and tumor weight were recorded. The tumor inhibition rate was calculated based on the following formula: [(average tumor weight of the control groups−average tumor weight of the experimental groups)/average tumor weight of the control groups]×100%. The data was processed statistically. The above experiments were repeated three times.
# The experiments were identical with the experiments for activity against mouse grafted sarcoma S-180, except the following:
# (1) the tumor cell line inoculated was mouse grafted uterine cervix cancer U14;
# (2) all the mice were female.
compound,measurement,setting,value
"CC(C)C1CC23OC1(O)CC(=CN1CCNCC1)C2CCC3C (stereo not drawn) [Compound 8, Curcumol piperazine hydrochloride]",inhibition rate against mouse grafted uterine cervix cancer U14,concentration above 20 mg/kg,above 50%
"C=C1CC2(OS(=O)(=O)[O-])OC3(CC2C(C)C)C(C)CCC13.[Na+] (stereo not drawn) [Compound 21, Curcumol sodium sulfonate]",inhibition rate against mouse grafted uterine cervix cancer U14,concentration above 20 mg/kg,above 50%
same,inhibition rate against mouse grafted uterine cervix cancer U14,concentration above 40 mg/kg,above 70%
